From the supplement of paper PMC6078165

Test system: MDAMB231
Assay: relative JC-1 red fluorescence (viability) vs pre-drug, coculture with fibroblast (fraction); higher = more viable cancer cells
Protocol: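 JC-1 labelled TNBC cells cocultured 1:1 (1,500 cells each) with CellTrace Violet stained primary or stromal fibroblasts in 384-well plates in FluoroBrite medium, treated with one of 42 anticancer drugs at 0.1, 1, 10 or 100 uM. JC-1 red fluorescence (mitochondrial integrity in cancer cells only) was read by plate reader every 8 h for 72 h. Values are normalised to each well's pre-drug value. The stock of one drug was tenfold lower, so its dose labels may be too high.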

O=NN(CCCl)C(=O)NCCCl [Carmustine]
relative JC-1 red fluorescence
Conditions	8 h	16 h	24 h	32 h	40 h	48 h	56 h	64 h	72 h
10 µM, coculture fibroblast: C12385	0.761	0.734	0.605	0.59	0.515	0.472	0.424	0.416	0.391
10 µM, coculture fibroblast: H6013	0.893	0.835	0.7831	0.764	0.7251	0.7075	0.6885	0.6687	0.6368
10 µM, coculture fibroblast: H6019	0.8302	0.768	0.671	0.658	0.592	0.559	0.496	0.459	0.404
10 µM, coculture fibroblast: H6076	0.876	0.784	0.707	0.689	0.648	0.61	0.5798	0.564	0.553
10 µM, coculture fibroblast: H6231	0.938	0.853	0.7785	0.732	0.669	0.637	0.59	0.564	0.531
10 µM, coculture fibroblast: HADF	0.914	0.875	0.841	0.825	0.786	0.746	0.737	0.714	0.667
10 µM, coculture fibroblast: HCFa	0.9074	0.8434	0.8062	0.756	0.695	0.6529	0.609	0.5679	0.5301
10 µM, coculture fibroblast: HCPF	0.9318	0.846	0.7511	0.738	0.673	0.635	0.591	0.558	0.536
10 µM, coculture fibroblast: HHSteC	0.9121	0.8595	0.8095	0.7667	0.7123	0.693	0.638	0.613	0.575
10 µM, coculture fibroblast: HMF	0.8892	0.8017	0.7178	0.676	0.622	0.58	0.533	0.507	0.483
10 µM, coculture fibroblast: HPFa	0.928	0.878	0.798	0.727	0.669	0.616	0.554	0.511	0.45
10 µM, coculture fibroblast: HUF	0.863	0.75	0.712	0.594	0.51	0.48	0.419	0.408	0.387
10 µM, coculture fibroblast: Hs5	0.891	0.806	0.718	0.665	0.608	0.55	0.498	0.467	0.432
10 µM, coculture fibroblast: Hs27A	0.91	0.877	0.848	0.837	0.804	0.739	0.766	0.741	0.7
10 µM, coculture fibroblast: Hs343T	0.892	0.779	0.685	0.654	0.592	0.533	0.467	0.439	0.412
10 µM, coculture fibroblast: WS1	0.7638	0.6926	0.635	0.577	0.523	0.492	0.445	0.425	0.397
100 µM, coculture fibroblast: C12385	0.7235	0.6778	0.692	0.623	0.551	0.538	0.52	0.534	0.538
100 µM, coculture fibroblast: H6013	0.9036	0.87	0.831	0.827	0.8	0.7795	0.7638	0.738	0.697
100 µM, coculture fibroblast: H6019	0.777	0.729	0.785	0.723	0.695	0.691	0.649	0.634	0.596
100 µM, coculture fibroblast: H6076	0.832	0.759	0.726	0.695	0.661	0.6307	0.619	0.621	0.621
100 µM, coculture fibroblast: H6231	0.846	0.7888	0.7346	0.7147	0.673	0.651	0.622	0.609	0.586
100 µM, coculture fibroblast: HADF	0.879	0.847	0.8305	0.8	0.7716	0.748	0.716	0.706	0.656
100 µM, coculture fibroblast: HCFa	0.90771	0.8588	0.822	0.789	0.754	0.71	0.672	0.639	0.5908
100 µM, coculture fibroblast: HCPF	0.831	0.744	0.703	0.683	0.632	0.595	0.568	0.542	0.523
100 µM, coculture fibroblast: HHSteC	0.914	0.8812	0.855	0.79814	0.7545	0.729	0.6811	0.6595	0.631
100 µM, coculture fibroblast: HMF	0.845	0.768	0.727	0.701	0.658	0.621	0.597	0.586	0.558
100 µM, coculture fibroblast: HPFa	0.9053	0.894	0.8522	0.8085	0.7813	0.7516	0.6925	0.6573	0.598
100 µM, coculture fibroblast: HUF	0.8243	0.728	0.756	0.644	0.589	0.584	0.555	0.567	0.568
100 µM, coculture fibroblast: Hs5	0.868	0.81	0.773	0.732	0.699	0.649	0.62	0.598	0.575
100 µM, coculture fibroblast: Hs27A	0.86993	0.853	0.816	0.804	0.768	0.742	0.722	0.71	0.655
100 µM, coculture fibroblast: Hs343T	0.858	0.75	0.695	0.659	0.606	0.555	0.512	0.482	0.452
100 µM, coculture fibroblast: WS1	0.725	0.638	0.645	0.551	0.505	0.492	0.46	0.466	0.461

The reference is the same well before dosing, and untreated signal decays as well.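 Fibroblast labels denote human fibroblasts, mainly primary ones from uterus (C12385, HUF), lung (H6013), bone (Hs27A), adrenal (HADF) and skin (WS1), plus mammary HMF and breast cancer-associated Hs343T. Cancer cells are basal-like or mesenchymal-like triple-negative breast cancer lines. A hit is a response shift exceeding 3x replicate standard deviation. The tissue of the other fibroblasts is not given here.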
